# Measured values from PubChem BioAssay AID504444 (National Center for Advancing Translational Sciences (NCATS), 2011).
# Out of some 360,000 compounds screened, about 7,500 (2.1%) were called active. The shares of active, inactive and inconclusive entries below differ from those in the screen. The call rests on the fitted dose curve; in most records, active means well fitted inhibition curve with a large enough effect; inconclusive means small, poorly fitted or top-dose-only effect, or effect the other way; inactive means flat fitted curve, though single readings scatter. Where the call is inconclusive, the potency comes from a doubtful curve fit.
# Assay: Nrf2 qHTS screen for inhibitors; further: nearly all actives have a fitted effect of over 60% in size
# Settings: A549 ARE-Fluc reporter, luciferase luminescence, 18-24 h; series mostly up to 46 µM
# How it was run: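 In this cell-based qHTS, ARE-driven firefly luciferase in A549 cells reports Nrf2 activity; the luminescent signal after BugLite lysis is the measured value, with a prior CellTiter-Fluor read for cell health.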
# Potency means the concentration at half of the fitted maximal effect.
row,Compound,Potency
1,CCOc1cccc(C(=O)Nc2cc(-c3nn4c(C)nnc4s3)ccc2C)c1,"inconclusive: 16.4 µM [falling, single point]"
2,Cc1ccc(-n2c(SCC(N)=O)nc3c(c2=O)C2(CCCC2)Cc2ccccc2-3)cc1,"inconclusive: 18.4 µM [falling, single point]"
3,COc1ccc2c(c1)OC[C@H]1[C@H]2N2C(=O)c3cc(C)ccc3NC(=O)[C@@]2(C)[C@H]1c1ccccc1,inactive
4,CC(C)CC(NC(=O)OCc1ccccc1)C(=O)NC(Cc1ccccc1)C(=O)CCl (configuration not stated),inactive
5,CCc1ccc(CN(C(=O)c2cc(=O)c3ccc(C)cc3o2)C2CCS(=O)(=O)C2)cc1 (configuration not stated),inactive
6,O=C1CN(C(=O)c2ccc(Br)o2)C(c2ccc(F)cc2)c2cc(Cl)ccc2N1 (configuration not stated),"inconclusive: 16.4 µM [falling, single point]"
7,CCOC(=O)C1(CCCc2ccccc2)CCN(C(=O)CCCn2cncn2)CC1,"inconclusive: 0.164 µM [falling, full curve, poor fit]"
8,CCOC(=O)c1c(-c2ccc(-c3ccccc3)cc2)csc1NC(=O)CCN1CCOCC1,"inconclusive: 20.6 µM [falling, single point]"
9,O=C(O)c1cccc(N=NN2CCOCC2)c1,"inconclusive: 11.6 µM [activator, single point]"
10,Cc1cccc(Nc2nnc(SCC(=O)Nc3cccc(S(=O)(=O)N4CCCCC4)c3)s2)c1,"inconclusive: 29.1 µM [falling, single point]"
11,O=[N+]([O-])c1ccc(NCc2ccc3c(c2)OCO3)cc1,"inconclusive: 29.1 µM [activator, single point]"
12,CCN(CC)CCNC(=O)c1ccc(-n2c(-c3ccccc3)cc3c2CCCC3)cc1,"inconclusive: 16.4 µM [falling, partial curve, poor fit]"
13,COc1cccc(CNC(=O)CCCn2nc(C)c3c(C)n(-c4ccc(C)cc4)nc3c2=O)c1OC,"inconclusive: 23.1 µM [falling, single point]"
14,CCCc1nnc(NC(=O)COc2ccc3c(c2)OCO3)s1,"inconclusive: 29.1 µM [activator, single point]"
15,COc1ccc(N2CCN(C(=O)c3cccc(NS(=O)(=O)c4cccc(F)c4)c3)CC2)cc1,"inconclusive: 25.9 µM [falling, partial curve, poor fit]"
16,C=C(C)Cn1c(SCC(=O)N/N=C/c2ccccc2)nc2ccccc2c1=O,inactive
17,COc1ccc2nc(-c3ccccn3)[nH]c2c1,"inconclusive: 1.64 µM [activator, partial curve]"
18,CC(C)[C@H](NC(=O)C1CC(=O)N(c2ccc3c(c2)OCO3)C1)C(=O)NC1CCCC1 (some centres not stated),"inconclusive: 29.1 µM [activator, single point]"
19,COc1ccc(-c2nc3nc(C)c(Cc4ccccc4)c(=O)n3[nH]2)cc1,"inconclusive: 29.1 µM [activator, single point]"
20,CN(CC(=O)Nc1ccc(C(N)=O)cc1)S(=O)(=O)c1ccc2c(c1)OCCO2,"inconclusive: 9.2 µM [falling, partial curve, poor fit]"
21,CC(C)c1cc(C(C)C)c(S(=O)(=O)N2CCNCC2)c(C(C)C)c1,"inconclusive: 20.6 µM [falling, partial curve]"
22,COc1cccc(-c2nc3ccccc3s2)c1O,"inconclusive: 25.9 µM [activator, partial curve, poor fit]"
23,COc1ccc(C(=O)N/N=C(\C)c2ccccn2)cc1OC,active: 5.17 µM

row,Compound,Potency
1,N#CC(C(=O)C1CCCCC1)c1nc2ccccc2[nH]1 (configuration not stated),"inconclusive: 18.4 µM [falling, single point]"
2,COc1cccc(N/C(SC)=C(/C#N)C(=O)NCc2cccs2)c1,"inconclusive: 20.6 µM [falling, partial curve, poor fit]"
3,CC1(C)CN(c2ccccc2)N(Cc2ccc(F)cc2)C1=O,"inconclusive: 20.6 µM [falling, partial curve, poor fit]"
4,O=C(COC(=O)c1ncc(Cl)c(Cl)c1Cl)Nc1ccc(Cl)cn1,inactive
5,O=C(NNC1=Nc2cccc3cccc1c23)c1ccc(Br)cc1,"inconclusive: 29.1 µM [falling, single point]"
6,CCOc1ccc2nc(NC(=O)CN3CCN(CC)CC3)sc2c1,"inconclusive: 32.6 µM [activator, partial curve, poor fit]"
7,Cc1ccc(Cl)cc1NC(=O)CCS(=O)(=O)c1ccc2c(c1)n(C)c(=O)c(=O)n2C,inactive
8,O=C(/C=C/c1ccc(Cl)cc1)NCc1ccncc1,"inconclusive: 23.1 µM [falling, partial curve, poor fit]"
9,COc1ccc(C(=O)N2CCN(c3nc4ccccc4o3)CC2)cc1OC,active: 18.4 µM
10,O=C(Nc1ccc(Cl)cc1)c1cc2c(-c3ccccc3)nn(-c3ccccc3)c2s1,inactive
11,Cc1onc(-c2ccccc2)c1C(=O)Nc1ccncc1,inactive
12,CCOC(=O)Cc1csc(NC(=O)CN2C(=O)c3ccccc3S2(=O)=O)n1,inactive
13,Cc1ccc(C(=O)CNc2ccc(C)cc2C)cc1,"inconclusive: 0.231 µM [activator, full curve, poor fit]"
14,CCOc1ccccc1NS(=O)(=O)c1ccc2c(c1)NC(=O)CCS2,"inconclusive: 16.4 µM [activator, partial curve]"
15,Cc1ccc(-c2nnn(Cc3nc(N)nc(N4CCOCC4)n3)n2)cc1,"inconclusive: 20.6 µM [falling, single point]"
16,COc1ccccc1N1CCN(C(=O)C2CCCN(S(=O)(=O)c3ccc(C)cc3)C2)CC1 (configuration not stated),"inconclusive: 14.6 µM [falling, partial curve, poor fit]"
17,CN(Cc1ccon1)C(=O)CCc1nnc(Cc2ccc(-c3ccccc3)cc2)o1,"inconclusive: 4.61 µM [activator, full curve, poor fit]"
18,COc1ccc2nc(SCc3ccccc3)nc(C)c2c1,"inconclusive: 2.59 µM [activator, full curve]"
19,Cc1cccc(-c2nc(C(N)=O)c3c(n2)n(-c2ccc4c(c2)OCO4)c(=O)n3C)c1,inactive
20,COc1ccc(N(C)C(=O)c2cc(S(=O)(=O)N3CCc4ccccc43)cn2C)c(OC)c1,active: 18.4 µM
21,Cc1ccccc1C(=O)NNC(=O)C(=O)Nc1cccc(Cl)c1C,"inconclusive: 29.1 µM [falling, single point]"
22,CCN(CC(=O)Nc1ccc(OC)cc1)C(=O)c1cc(S(=O)(=O)N2CCOCC2)ccc1N1CCCC1,"inconclusive: 25.9 µM [falling, partial curve, poor fit]"
23,Cc1ccc(CN(Cc2ccco2)c2cnc(S(C)(=O)=O)nc2C(=O)Nc2ccccc2Br)o1,inactive

row,Compound,Potency
1,CCCCC(CC)CN=C(N)NC(N)=NCCCCCCN=C(N)NC(N)=NCC(CC)CCCC (configuration not stated),"inconclusive: 16.4 µM [falling, single point]"
2,CS(=O)(=O)N(CC(=O)Nc1ccc(S(=O)(=O)N2CCOCC2)cc1)c1ccccc1Br,"inconclusive: 14.6 µM [falling, single point]"
3,O=C(CN(c1ccc(Cl)c(Cl)c1)S(=O)(=O)c1ccccc1)N1CCc2ccccc2C1,"inconclusive: 18.4 µM [falling, single point]"
4,c1ccc(C2CC(c3cccs3)=NN2c2ccccc2)cc1 (configuration not stated),inactive
5,CCN(CC)S(=O)(=O)c1cccc(C(=O)N[C@H](C(=O)NCc2ccc(Cl)cc2)C(C)C)c1,"inconclusive: 23.1 µM [falling, single point]"
6,CCOC(=O)c1ccc(NC(=O)Cn2nnc(-c3ccccc3C)n2)cc1,"inconclusive: 32.6 µM [falling, single point]"
7,S=c1[nH]c2ccccc2c2ccccc12,"inconclusive: 1.16 µM [falling, full curve, poor fit]"
8,Cc1ccc(NC(=O)CN2CCc3cc4c(cc3C2)OCCCO4)cc1C,"inconclusive: 18.4 µM [falling, single point]"
9,O=C(CNC(=O)c1ccccc1F)OCC(=O)N1CCCCC1,inactive
10,CC(C)(C)c1ccc(NC(=O)Nc2ccc(F)cc2)cc1,"inconclusive: 16.4 µM [activator, single point]"
11,O=c1n(Cc2ccccc2Cl)nc2n1-c1ccccc1SC2,"inconclusive: 20.6 µM [activator, single point]"
12,O=C(Nc1ccc(N2CCN(C(=O)c3ccccc3)CC2)cc1)c1ccc(Br)o1,"inconclusive: 14.6 µM [falling, partial curve]"
13,CCOC(=O)C1=C(N)OC2=C(C(=O)CC(C)(C)C2)C1c1ccoc1 (configuration not stated),"inconclusive: 3.26 µM [activator, full curve, poor fit]"
14,COc1ccc(C(=O)OCC(=O)Nc2nc3c(F)c(F)c(F)cc3s2)cc1OC,"inconclusive: 29.1 µM [activator, partial curve, poor fit]"
15,CC(C(=O)NCc1ccc(Cl)cc1)n1cccc1C(=O)c1ccccc1 (configuration not stated),"inconclusive: 23.1 µM [falling, single point]"
16,COc1ccc(CCNC(=O)C2CCC(C(C)(C)C)CC2)cc1OC (configuration not stated),inactive
17,CCOC(=O)c1sc2nc(C3CC3)cc(-c3ccc(OC)cc3)c2c1N,inactive
18,N#CCCn1cc(/C=N/O)c(-c2ccccc2)n1,inactive
19,Nc1ccccc1SCC(=O)Nc1cccc2ccccc12,"inconclusive: 29.1 µM [activator, single point]"
20,O=C(CC(=O)c1ccccc1)Nc1ccccc1C(F)(F)F,active: 16.4 µM
21,O=C(CSc1ccc2nnc(CCNS(=O)(=O)c3ccccc3)n2n1)Nc1nc2ccccc2s1,"inconclusive: 16.4 µM [falling, partial curve, poor fit]"

# Random excerpt: four compounds from above.
row,Compound,Potency
8,Cc1ccc(NC(=O)CN2CCc3cc4c(cc3C2)OCCCO4)cc1C,"inconclusive: 18.4 µM [falling, single point]"
1,CCCCC(CC)CN=C(N)NC(N)=NCCCCCCN=C(N)NC(N)=NCC(CC)CCCC (configuration not stated),"inconclusive: 16.4 µM [falling, single point]"
12,O=C(Nc1ccc(N2CCN(C(=O)c3ccccc3)CC2)cc1)c1ccc(Br)o1,"inconclusive: 14.6 µM [falling, partial curve]"
21,O=C(CSc1ccc2nnc(CCNS(=O)(=O)c3ccccc3)n2n1)Nc1nc2ccccc2s1,"inconclusive: 16.4 µM [falling, partial curve, poor fit]"
